Taken from: PubChem BioAssay AID1259254 (NCATS, 2017)

- Purpose: 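Finding genes that stop cells copying their DNA twice in one cycle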 (primary screen)
- Cell system: human HCT116 colorectal cancer cells
- Reagents: single siRNA against human genes
- Timing: 3 days
- Measured: 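Imaged Hoechst DNA stain sorts each cell into a cycle phase by DNA amount; per plate, G2 fraction set to 0% for non-targeting and 100% for GMNN siRNA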
- Reading the numbers: G2 robust z-score and G2 cells, % of GMNN control: higher = more G2 cells, more excess DNA replication; raw share of cells in G2: higher = larger share of cells with G2 DNA content
- Active means: 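Active siRNAs have a G2 robust z of 5 or more median absolute deviations over the median, which in these data means about 38% or higher of GMNN control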
Shown is a random part of about 59,000 deposited reagents. Over the whole deposit, about 1,550 (2.6%) are marked active. 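G2 share is only a proxy for re-replication; each gene was hit by three separate siRNAs, and active genes were retested.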 Raw values vary from plate to plate and are shown uncorrected. Entries without a mark were called inactive. Not stated in the record: the amount of reagent.

| Gene | PubChem SID | G2 robust z-score | G2 cells, % of GMNN control | raw share of cells in G2 (%) |
| --- | --- | --- | --- | --- |
| TNFRSF11B (TNF receptor superfamily member 11b) | SID160778386 | -0.712 | -2.04 | 4.43 |
| TNFRSF11B (TNF receptor superfamily member 11b) | SID160778387 | -0.219 | 1.43 | 5.33 |
| TNFRSF11B (TNF receptor superfamily member 11b) | SID160778388 | -0.849 | -3 | 2.17 |
| ZNF449 (zinc finger protein 449) | SID160761154 | -0.57 | -1.04 | 4.26 |
| ZNF449 (zinc finger protein 449) | SID160761155 | 0.492 | 6.43 | 9.02 |
| ZNF449 (zinc finger protein 449) | SID160761156 | -0.739 | -2.23 | 3.89 |
| NPAS3 (neuronal PAS domain protein 3) | SID160747394 | 1.12 | 10.9 | 10.2 |
| NPAS3 (neuronal PAS domain protein 3) | SID160747395 | 1.01 | 10.1 | 7.92 |
| NPAS3 (neuronal PAS domain protein 3) | SID160747396 | -0.459 | -0.265 | 4.13 |
| MANEA (mannosidase endo-alpha) | SID160749210 | -0.486 | -0.451 | 4.26 |
| MANEA (mannosidase endo-alpha) | SID160749211 | -0.415 | 0.0447 | 4.32 |
| MANEA (mannosidase endo-alpha) | SID160749212 | -0.358 | 0.449 | 2.5 |
| LOC642696 | SID160768688 | -0.249 | 1.22 | 4.1 |
| LOC642696 | SID160768689 | -0.00875 | 2.91 | 4.32 |
| LOC642696 | SID160768690 | 0.0729 | 3.48 | 4.16 |
| GPR27 (G protein-coupled receptor 27) | SID160723805 | -0.151 | 1.9 | 3.85 |
| GPR27 (G protein-coupled receptor 27) | SID160731006 | -0.745 | -2.28 | 3.72 |
| GPR27 (G protein-coupled receptor 27) | SID160773496 | -1.11 | -4.82 | 4.12 |
| XKR3 (XK related 3) | SID160758920 | 0.856 | 8.99 | 6.84 |
| XKR3 (XK related 3) | SID160758921 | -0.271 | 1.06 | 3.24 |
| XKR3 (XK related 3) | SID160758923 | -0.339 | 0.58 | 3.27 |
| SYNE1 (spectrin repeat containing nuclear envelope protein 1) | SID160736062 | 2.77 | 22.5 | 12.9 |
| SYNE1 (spectrin repeat containing nuclear envelope protein 1) | SID160736063 | -0.802 | -2.68 | 2.78 |
| SYNE1 (spectrin repeat containing nuclear envelope protein 1) | SID160736065 | 3.4 | 26.9 | 12.7 |
| VASH1 (vasohibin 1) | SID160731958 | -0.64 | -1.54 | 4.38 |
| VASH1 (vasohibin 1) | SID160731966 | 2.51 | 20.6 | 12.6 |
| VASH1 (vasohibin 1) | SID160731976 | 4.8 | 36.7 | 16.9 |
| ZNF385A (zinc finger protein 385A) | SID160737315 | 0.0725 | 3.48 | 5.34 |
| ZNF385A (zinc finger protein 385A) | SID160737316 | 0.886 | 9.2 | 10.3 |
| ZNF385A (zinc finger protein 385A) | SID160737317 | 0.0122 | 3.05 | 4.99 |
